Numbering of substitutions follows the chain as printed. In names and notes the source's numbering stands. Results are given in words; binding and its absence hold for the method and conditions named. In cells and extracts the contact can be indirect. Some results given as binding are weak or reduced against the parent protein; the word gives no strength. Values belong to the binder of their own block, whether it stands above or below them.
Tests used:
Experiment in all cases: cross-linking; transfected CHO cells, control or labelled with 20 uM BMA for 20 min in the dark; surface proteins biotinylated, lysed (1% Triton X-100), streptavidin agarose, SDS-PAGE (sample buffer with 50 mM DTT, 65°C), Western blot with anti-ASIC1 antibody MTY19; dimer band seen with and without BMA
[1] = molecular target: human ASIC1a wild type (human) (UniProt P78348)
[2] = molecular target: human ASIC1a G430C (human) (UniProt P78348)
[3] = molecular target: human ASIC1a I428C (human) (UniProt P78348)

- binding [1]: binds
B1: human ASIC1a wild type (protein, UniProt P78348-2 1-528)
chain: MELKAEEEEVGGVQPVSIQAFASSSTLHGLAHIFSYERLSLKRALWALCFLGSLAVLLCVCTERVQYYFHYHHVTKLDEVAASQLTFPAVTLCNLNEFRFSQVSKNDLYHAGELLALLNNRYEIPDTQMADEKQLEILQDKANFRSFKPKPFNMREFYDRAGHDIRDMLLSCHFRGEVCSAEDFKVVFTRYGKCYTFNSGRDGRPRLKTMKGGTGNGLEIMLDIQQDEYLPVWGETDETSFEAGIKVQIHSQDEPPFIDQLGFGVAPGFQTFVACQEQRLIYLPPPWGTCKAVTMDSDLDFFDSYSITACRIDCETRYLVENCNCRMVHMPGDAPYCTPEQYKECADPALDFLVEKDQEYCVCEMPCNLTRYGKELSMVKIPSKASAKYLAKKFNKSEQYIGENILVLDIFFEVLNYETIEQKKAYEIAGLLGDIGGQMGLFIGASILTVLELFDYAYEVIKHKLCRRGKCQKEAKRSSADKGVALSLDDVKRHNPCESLRGHPAGMTYAANILPHHPARGTFEDFTC

- binding [2]: binds
B2: human ASIC1a G430C (protein, UniProt P78348-2 1-528)
chain: B1 chain with G430C

- binding [3]: binds
B3: human ASIC1a I428C (protein, UniProt P78348-2 1-528)
chain: B1 chain with I428C

Reference: article PMC9269482
